Common to all, as to assay: co-IP
For assay [1], the target named is 3XFlag-Cullin1 (UniProt Q13616).
The target of assay [2] is endogenous CUL1 (THP-1 macrophages) (human (endogenous in THP-1)) (UniProt Q13616).
In assay [3] the target is HA-NLRP3 (UniProt Q96P20).
Assay [4] has as its target 3XFlag-Cullin1 (UniProt Q13616). This is another data set of the same source.
Assay [5] has as its target HA-NLRP3 (UniProt Q96P20). The source holds these as a separate data set.

Sequences of proteins named here, by UniProt entry; tags and fusion partners are left off.
UniProt Q13616: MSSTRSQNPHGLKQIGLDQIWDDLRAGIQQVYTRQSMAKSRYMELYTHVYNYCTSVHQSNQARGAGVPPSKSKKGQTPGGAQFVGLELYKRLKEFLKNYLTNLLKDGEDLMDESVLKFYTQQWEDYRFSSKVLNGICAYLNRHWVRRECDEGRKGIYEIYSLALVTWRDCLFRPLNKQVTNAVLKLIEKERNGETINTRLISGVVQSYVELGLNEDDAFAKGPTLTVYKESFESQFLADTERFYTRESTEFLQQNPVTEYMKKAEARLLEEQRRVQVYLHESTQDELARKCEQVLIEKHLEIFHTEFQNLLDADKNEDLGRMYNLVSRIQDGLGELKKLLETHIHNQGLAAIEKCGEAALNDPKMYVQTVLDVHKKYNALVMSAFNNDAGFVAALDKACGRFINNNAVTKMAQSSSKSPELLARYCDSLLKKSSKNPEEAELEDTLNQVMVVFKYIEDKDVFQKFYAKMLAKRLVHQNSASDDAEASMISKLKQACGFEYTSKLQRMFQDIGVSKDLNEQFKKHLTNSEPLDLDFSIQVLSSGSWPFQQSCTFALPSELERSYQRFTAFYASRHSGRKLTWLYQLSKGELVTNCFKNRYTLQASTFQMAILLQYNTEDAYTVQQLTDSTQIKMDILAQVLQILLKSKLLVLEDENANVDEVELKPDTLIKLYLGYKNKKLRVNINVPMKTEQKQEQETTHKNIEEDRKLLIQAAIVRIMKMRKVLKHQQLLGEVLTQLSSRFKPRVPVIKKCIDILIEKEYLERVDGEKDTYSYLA
UniProt P29466: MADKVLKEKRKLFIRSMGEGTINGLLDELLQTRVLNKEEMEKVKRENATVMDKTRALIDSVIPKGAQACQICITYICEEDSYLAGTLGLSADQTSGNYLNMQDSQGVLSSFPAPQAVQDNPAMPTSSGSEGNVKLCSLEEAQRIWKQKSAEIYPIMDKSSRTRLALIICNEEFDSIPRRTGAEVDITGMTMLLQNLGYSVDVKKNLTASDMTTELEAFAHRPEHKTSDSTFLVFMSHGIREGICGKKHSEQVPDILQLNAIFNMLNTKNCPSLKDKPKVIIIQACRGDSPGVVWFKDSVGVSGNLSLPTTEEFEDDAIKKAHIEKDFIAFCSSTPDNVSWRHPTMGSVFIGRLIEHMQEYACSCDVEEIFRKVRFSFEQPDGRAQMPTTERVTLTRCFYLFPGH

Like-named read-outs stand apart in the source and are kept apart here. These are yes or no findings as the source states them, for the method shown. In cells and extracts the contact can be indirect. Some binding calls cover weakened binding; strength is not graded here. For some of these results: Sequences can lack the tags named with a protein.

As for HA-NLRP3 (from UniProt Q96P20 1-1036), the binding entry with 3XFlag-Cullin1 [1] was “binds”.
With “endogenous NLRP3 (THP-1 macrophages) (from UniProt Q96P20 1-1036)”, the binding result in assay [2] is “binds”.
Turning to “3XFlag-ATP1β3 (from UniProt P54709 1-279)”, the binding entry with HA-NLRP3 [3] was “no binding”.
“endogenous Casp-1 (THP-1 macrophages) (from UniProt P29466 1-404)”: in assay [2], the binding entry is reported as “no binding”.
On to “NLRP3 (pcDNA3.1(+)-NLRP3, no tag named) (from UniProt Q96P20 1-1036)”, for which the binding entry with 3XFlag-Cullin1 [1] and with 3XFlag-Cullin1 [4] was “binds” each time.

B1: 3XFlag-PGM1 (protein, UniProt P36871 1-562)
chain: MVKIVTVKTQAYQDQKPGTSGLRKRVKVFQSSANYAENFIQSIISTVEPAQRQEATLVVGGDGRFYMKEAIQLIARIAAANGIGRLVIGQNGILSTPAVSCIIRKIKAIGGIILTASHNPGGPNGDFGIKFNISNGGPAPEAITDKIFQISKTIEEYAVCPDLKVDLGVLGKQQFDLENKFKPFTVEIVDSVEAYATMLRSIFDFSALKELLSGPNRLKIRIDAMHGVVGPYVKKILCEELGAPANSAVNCVPLEDFGGHHPDPNLTYAADLVETMKSGEHDFGAAFDGDGDRNMILGKHGFFVNPSDSVAVIAANIFSIPYFQQTGVRGFARSMPTSGALDRVASATKIALYETPTGWKFFGNLMDASKLSLCGEESFGTGSDHIREKDGLWAVLAWLSILATRKQSVEDILKDHWQKYGRNFFTRYDYEEVEAEGANKMMKDLEALMFDRSFVGKQFSANDKVYTVEKADNFEYSDPVDGSISRNQGLRLIFTDGSRIVFRLSGTGSAGATIRLYIDSYEKDVAKINQDPQVMLAPLISIALKVSQLQERTGRTAPTVIT
With B1, in the assay with HA-NLRP3 [5], the binding entry is given as “no binding”.
